Experimental data: the supplement of paper PMC10849652
The list shows a part of the results.

Sequences of proteins named here, by UniProt entry; tags and fusion partners are left off. A change or cut given only in a name is not applied to a line headed by its entry.
UniProt Q9NRY5: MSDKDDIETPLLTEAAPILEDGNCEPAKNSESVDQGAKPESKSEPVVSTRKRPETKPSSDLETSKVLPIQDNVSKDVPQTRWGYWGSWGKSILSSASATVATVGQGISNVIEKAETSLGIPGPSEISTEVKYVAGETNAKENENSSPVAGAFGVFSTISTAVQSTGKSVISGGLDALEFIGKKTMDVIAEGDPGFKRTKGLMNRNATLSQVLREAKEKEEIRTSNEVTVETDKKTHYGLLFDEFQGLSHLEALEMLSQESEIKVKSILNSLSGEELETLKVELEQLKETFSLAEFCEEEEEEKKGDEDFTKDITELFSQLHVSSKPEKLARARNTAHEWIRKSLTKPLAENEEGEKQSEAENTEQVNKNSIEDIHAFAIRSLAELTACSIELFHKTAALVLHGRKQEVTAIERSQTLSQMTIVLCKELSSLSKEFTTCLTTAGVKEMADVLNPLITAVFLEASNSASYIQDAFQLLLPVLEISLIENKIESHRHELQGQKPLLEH
UniProt Q9Y5Q0: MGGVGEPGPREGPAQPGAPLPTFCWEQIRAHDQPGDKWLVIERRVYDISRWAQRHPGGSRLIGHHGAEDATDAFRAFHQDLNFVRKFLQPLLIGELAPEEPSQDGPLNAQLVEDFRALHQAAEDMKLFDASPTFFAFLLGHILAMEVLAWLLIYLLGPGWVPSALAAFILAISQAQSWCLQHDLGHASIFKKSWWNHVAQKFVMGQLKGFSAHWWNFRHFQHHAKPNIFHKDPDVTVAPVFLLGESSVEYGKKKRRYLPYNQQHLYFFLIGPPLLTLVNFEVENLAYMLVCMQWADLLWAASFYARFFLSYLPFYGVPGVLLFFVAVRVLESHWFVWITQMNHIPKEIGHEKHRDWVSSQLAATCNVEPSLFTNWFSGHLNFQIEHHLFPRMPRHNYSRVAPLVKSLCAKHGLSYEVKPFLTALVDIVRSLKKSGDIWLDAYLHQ
UniProt Q96B26, whole entry, looked up: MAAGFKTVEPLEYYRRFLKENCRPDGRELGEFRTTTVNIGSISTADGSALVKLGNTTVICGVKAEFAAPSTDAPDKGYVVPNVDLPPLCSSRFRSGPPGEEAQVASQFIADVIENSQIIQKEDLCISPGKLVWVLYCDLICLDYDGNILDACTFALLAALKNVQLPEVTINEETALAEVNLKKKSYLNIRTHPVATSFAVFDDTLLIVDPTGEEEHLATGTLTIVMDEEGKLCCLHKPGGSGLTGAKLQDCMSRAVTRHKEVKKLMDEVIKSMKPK
UniProt Q9UBC2: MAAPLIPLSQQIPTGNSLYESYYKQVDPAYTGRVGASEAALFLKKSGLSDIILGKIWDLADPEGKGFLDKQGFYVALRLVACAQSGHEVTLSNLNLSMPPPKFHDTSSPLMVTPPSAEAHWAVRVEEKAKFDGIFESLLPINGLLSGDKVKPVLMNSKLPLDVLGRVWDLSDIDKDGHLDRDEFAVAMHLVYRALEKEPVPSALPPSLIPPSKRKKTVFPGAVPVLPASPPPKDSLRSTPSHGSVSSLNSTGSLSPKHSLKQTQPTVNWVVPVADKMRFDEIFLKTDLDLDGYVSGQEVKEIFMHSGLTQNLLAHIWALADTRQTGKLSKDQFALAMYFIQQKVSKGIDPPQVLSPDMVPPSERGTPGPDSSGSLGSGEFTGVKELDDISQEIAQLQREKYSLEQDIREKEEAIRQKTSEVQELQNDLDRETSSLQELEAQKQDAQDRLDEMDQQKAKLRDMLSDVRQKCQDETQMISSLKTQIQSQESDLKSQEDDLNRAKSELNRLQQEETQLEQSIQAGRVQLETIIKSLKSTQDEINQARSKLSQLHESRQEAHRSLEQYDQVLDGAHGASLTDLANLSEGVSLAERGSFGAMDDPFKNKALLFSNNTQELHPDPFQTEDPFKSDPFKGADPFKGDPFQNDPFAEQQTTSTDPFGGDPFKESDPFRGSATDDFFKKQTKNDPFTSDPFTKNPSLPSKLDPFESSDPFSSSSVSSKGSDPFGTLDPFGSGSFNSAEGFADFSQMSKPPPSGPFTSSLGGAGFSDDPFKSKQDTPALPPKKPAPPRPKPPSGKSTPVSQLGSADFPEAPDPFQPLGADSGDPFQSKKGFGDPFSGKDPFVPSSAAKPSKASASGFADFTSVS
UniProt Q8N128: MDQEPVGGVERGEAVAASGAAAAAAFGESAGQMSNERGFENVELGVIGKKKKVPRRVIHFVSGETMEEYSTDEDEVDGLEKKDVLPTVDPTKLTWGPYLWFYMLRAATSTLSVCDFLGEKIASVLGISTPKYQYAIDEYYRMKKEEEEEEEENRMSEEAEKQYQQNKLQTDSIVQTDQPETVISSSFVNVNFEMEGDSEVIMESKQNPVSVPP
UniProt Q13868, whole entry, looked up: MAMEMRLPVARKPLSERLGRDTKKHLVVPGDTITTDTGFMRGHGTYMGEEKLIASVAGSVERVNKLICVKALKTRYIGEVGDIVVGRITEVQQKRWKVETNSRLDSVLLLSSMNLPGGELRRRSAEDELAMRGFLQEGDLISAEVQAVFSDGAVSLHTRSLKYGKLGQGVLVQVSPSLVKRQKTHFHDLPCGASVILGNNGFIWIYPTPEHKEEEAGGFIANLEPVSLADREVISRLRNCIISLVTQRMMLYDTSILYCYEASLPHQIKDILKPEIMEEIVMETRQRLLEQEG
UniProt Q96DZ1: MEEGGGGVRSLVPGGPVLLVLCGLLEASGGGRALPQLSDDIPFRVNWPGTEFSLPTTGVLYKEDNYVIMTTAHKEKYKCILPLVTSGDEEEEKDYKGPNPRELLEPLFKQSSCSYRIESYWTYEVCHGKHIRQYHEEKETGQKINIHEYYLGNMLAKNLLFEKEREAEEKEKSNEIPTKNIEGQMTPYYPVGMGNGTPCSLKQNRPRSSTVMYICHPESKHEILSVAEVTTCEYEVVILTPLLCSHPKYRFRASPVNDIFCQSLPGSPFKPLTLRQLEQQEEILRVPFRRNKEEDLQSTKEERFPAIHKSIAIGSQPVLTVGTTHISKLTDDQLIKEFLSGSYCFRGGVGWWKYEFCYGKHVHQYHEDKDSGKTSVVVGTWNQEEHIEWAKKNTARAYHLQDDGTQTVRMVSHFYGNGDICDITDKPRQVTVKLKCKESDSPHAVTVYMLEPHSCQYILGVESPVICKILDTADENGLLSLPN
UniProt P07814: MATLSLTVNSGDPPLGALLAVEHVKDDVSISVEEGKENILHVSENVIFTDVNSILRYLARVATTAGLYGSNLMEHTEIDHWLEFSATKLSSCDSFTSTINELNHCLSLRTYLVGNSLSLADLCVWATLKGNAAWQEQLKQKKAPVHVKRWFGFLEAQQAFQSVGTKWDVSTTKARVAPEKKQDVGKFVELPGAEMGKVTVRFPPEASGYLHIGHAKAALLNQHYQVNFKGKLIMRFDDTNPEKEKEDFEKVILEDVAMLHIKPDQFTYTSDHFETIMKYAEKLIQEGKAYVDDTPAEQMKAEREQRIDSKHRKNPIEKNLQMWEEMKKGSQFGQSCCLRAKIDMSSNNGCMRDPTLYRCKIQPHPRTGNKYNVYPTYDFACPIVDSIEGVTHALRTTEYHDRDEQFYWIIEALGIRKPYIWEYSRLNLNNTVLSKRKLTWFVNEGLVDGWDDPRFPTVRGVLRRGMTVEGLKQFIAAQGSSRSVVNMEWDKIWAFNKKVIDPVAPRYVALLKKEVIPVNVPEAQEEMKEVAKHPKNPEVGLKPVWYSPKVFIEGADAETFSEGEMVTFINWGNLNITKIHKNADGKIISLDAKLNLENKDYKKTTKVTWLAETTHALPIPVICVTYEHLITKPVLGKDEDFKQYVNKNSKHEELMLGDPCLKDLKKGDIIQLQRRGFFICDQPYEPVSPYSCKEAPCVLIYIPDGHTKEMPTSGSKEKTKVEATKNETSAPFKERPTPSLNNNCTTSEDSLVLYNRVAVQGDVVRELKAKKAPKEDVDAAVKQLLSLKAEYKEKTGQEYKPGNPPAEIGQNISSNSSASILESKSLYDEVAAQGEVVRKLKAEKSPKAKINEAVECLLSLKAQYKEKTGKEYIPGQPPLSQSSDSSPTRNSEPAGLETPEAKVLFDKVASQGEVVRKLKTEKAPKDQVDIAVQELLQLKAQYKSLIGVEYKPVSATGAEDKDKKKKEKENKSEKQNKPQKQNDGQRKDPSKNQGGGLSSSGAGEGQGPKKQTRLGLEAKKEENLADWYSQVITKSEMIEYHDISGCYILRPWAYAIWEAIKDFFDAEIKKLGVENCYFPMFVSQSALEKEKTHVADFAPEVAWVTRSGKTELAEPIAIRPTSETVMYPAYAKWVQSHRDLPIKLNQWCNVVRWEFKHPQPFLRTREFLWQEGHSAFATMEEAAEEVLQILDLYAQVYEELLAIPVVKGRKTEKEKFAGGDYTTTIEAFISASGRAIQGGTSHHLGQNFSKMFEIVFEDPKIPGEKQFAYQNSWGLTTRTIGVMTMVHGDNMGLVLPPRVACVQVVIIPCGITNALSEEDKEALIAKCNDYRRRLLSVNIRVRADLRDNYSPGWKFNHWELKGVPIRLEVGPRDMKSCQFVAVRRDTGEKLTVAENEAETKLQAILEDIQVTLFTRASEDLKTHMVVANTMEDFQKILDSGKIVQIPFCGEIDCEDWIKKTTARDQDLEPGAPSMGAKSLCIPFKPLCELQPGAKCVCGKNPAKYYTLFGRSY
UniProt Q86UK5: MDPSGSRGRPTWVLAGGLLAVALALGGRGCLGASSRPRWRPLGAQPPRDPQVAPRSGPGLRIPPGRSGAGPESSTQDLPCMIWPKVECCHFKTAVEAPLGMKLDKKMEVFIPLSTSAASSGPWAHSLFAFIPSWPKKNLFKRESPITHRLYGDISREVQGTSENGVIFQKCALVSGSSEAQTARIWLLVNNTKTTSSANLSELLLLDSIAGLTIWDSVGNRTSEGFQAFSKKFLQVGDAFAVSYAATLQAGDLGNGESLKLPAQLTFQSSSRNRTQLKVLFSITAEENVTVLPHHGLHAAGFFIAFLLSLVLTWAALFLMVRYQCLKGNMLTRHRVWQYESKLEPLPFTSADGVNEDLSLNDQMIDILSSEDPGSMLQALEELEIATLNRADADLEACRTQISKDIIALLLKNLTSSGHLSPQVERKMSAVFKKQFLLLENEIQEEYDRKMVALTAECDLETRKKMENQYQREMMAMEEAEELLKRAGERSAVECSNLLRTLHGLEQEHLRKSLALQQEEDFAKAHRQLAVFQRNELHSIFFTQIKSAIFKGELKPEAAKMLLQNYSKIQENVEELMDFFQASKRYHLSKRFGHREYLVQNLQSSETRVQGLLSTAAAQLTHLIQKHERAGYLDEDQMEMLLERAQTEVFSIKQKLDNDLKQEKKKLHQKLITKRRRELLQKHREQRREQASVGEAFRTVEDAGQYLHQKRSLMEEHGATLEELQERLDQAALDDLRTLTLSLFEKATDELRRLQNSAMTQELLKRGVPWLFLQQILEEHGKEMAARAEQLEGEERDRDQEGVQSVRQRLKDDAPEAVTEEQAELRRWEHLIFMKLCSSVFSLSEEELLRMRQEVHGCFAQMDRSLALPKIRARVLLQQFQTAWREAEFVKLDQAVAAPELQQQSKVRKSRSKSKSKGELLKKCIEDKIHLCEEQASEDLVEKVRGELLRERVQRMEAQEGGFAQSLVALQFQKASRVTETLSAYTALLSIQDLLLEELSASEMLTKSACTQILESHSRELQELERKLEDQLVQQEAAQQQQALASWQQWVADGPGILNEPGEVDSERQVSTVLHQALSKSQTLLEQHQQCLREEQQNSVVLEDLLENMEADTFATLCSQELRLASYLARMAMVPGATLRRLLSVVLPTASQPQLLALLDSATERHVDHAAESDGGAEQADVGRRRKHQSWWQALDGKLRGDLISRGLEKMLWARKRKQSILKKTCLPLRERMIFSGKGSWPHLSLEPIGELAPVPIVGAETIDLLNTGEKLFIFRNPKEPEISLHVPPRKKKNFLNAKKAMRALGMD
UniProt Q9UNN5: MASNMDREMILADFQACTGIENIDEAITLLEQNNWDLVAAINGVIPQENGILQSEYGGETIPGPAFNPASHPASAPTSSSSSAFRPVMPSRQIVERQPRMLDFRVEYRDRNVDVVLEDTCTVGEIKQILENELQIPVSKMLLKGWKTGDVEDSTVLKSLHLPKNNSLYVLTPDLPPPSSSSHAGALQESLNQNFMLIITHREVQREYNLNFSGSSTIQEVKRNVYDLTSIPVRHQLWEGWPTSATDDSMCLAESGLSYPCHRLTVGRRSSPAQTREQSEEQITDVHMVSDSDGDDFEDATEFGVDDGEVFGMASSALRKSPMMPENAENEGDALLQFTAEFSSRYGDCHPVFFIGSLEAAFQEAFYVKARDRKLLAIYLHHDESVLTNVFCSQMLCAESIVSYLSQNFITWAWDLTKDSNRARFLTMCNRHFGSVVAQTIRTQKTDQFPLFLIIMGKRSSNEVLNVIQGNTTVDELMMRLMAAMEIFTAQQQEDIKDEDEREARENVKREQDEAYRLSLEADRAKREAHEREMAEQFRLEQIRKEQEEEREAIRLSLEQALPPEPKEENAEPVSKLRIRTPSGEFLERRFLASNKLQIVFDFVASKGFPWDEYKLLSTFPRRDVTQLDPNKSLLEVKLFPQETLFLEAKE

Experiments:
Assay in all cases: log2 fold change, soluble protein after heating vs DMSO (PISA); higher = thermal stabilisation; K562 cells, 10 uM, 30 min; active = over 0.2 and 3.5 SD of the protein, either way, in both replicates (recomputed)
[1] = compound: COC1=CC=C(C=C1)CN2C=CC3=C2C=C(C=C3)C(=O)NO
How it was run: (§1)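 Soluble protein was quantified by TMTpro 16plex LC-MS/MS after channel sums were equalised. It was obtained as the supernatant after 21,000xg for 90 min from pooled aliquots of K562 cells (2×10^6 cells/mL, 10 μM compound, 30 min) heated for 3 min across 48°C-58°C and extracted in PBS with 0.5% NP-40 at 4°C. Thermal stability values are relative to control samples and come from duplicates. They are given as log2 fold changes.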

filanesib = compound: CON(C)C(=O)N1N=C(c2cc(F)ccc2F)S[C@@]1(CCCN)c1ccccc1 [filanesib]
How it was run: as §1

zotarolimus = compound: CO[C@H]1C[C@@H]2CC[C@@H](C)[C@@](O)(O2)C(=O)C(=O)N2CCCC[C@H]2C(=O)O[C@H]([C@H](C)C[C@@H]2CC[C@H](n3cnnn3)[C@H](OC)C2)CC(=O)[C@H](C)/C=C(\C)[C@@H](O)[C@@H](OC)C(=O)[C@H](C)C[C@H](C)/C=C/C=C/C=C/1C [zotarolimus]
How it was run: as §1

idasanutlin = compound: COc1cc(C(=O)O)ccc1NC(=O)[C@@H]1N[C@@H](CC(C)(C)C)[C@](C#N)(c2ccc(Cl)cc2F)[C@H]1c1cccc(Cl)c1F [idasanutlin]
How it was run: as §1

alisertib = compound: COc1cc(Nc2ncc3c(n2)-c2ccc(Cl)cc2C(c2c(F)cccc2OC)=NC3)ccc1C(=O)O [alisertib]
How it was run: as §1

[2] = compound: COc1cc2nc(-c3cc(F)ccc3O)nc(N[C@@H]3CNC[C@H]3C(C)(C)O)c2cc1OC
How it was run: as §1

gefitinib = compound: COc1cc2ncnc(Nc3ccc(F)c(Cl)c3)c2cc1OCCCN1CCOCC1 [gefitinib]
How it was run: as §1

[3] = compound: COc1cccc2cc(-c3nc([C@H]4CC[C@H](C(=O)O)CC4)n4ncnc(N)c34)[nH]c12
How it was run: as §1

lapatinib = compound: CS(=O)(=O)CCNCc1ccc(-c2ccc3ncnc(Nc4ccc(OCc5cccc(F)c5)c(Cl)c4)c3c2)o1 [lapatinib]
How it was run: as §1

pictilisib = compound: CS(=O)(=O)N1CCN(Cc2cc3nc(-c4cccc5[nH]ncc45)nc(N4CCOCC4)c3s2)CC1 [pictilisib]
How it was run: as §1

Target	log2 fold change [1]	log2 fold change (filanesib)	log2 fold change (zotarolimus)	log2 fold change (idasanutlin)	log2 fold change (alisertib)	log2 fold change [2]	log2 fold change (gefitinib)	log2 fold change [3]	log2 fold change (lapatinib)	log2 fold change (pictilisib)
FAM114A2 (UniProt Q9NRY5)	inactive: 0	inactive: -0.131	inactive: -0.01	inactive: -0.036	inactive: -0.038	inactive: -0.093	inactive: 0.002	inactive: 0.035	inactive: -0.009	inactive: -0.02
FADS3 (UniProt Q9Y5Q0)	inactive: -0.067	inactive: -0.151	inactive: -0.062	inactive: 0.007	inactive: 0.005	inactive: -0.036	inactive: 0.04	inactive: 0.168	inactive: 0.097	inactive: 0.168
EXOC5 (UniProt O00471)	inactive: -0.005	inactive: -0.051	inactive: 0.089	inactive: -0.079	inactive: -0.01	inactive: 0.123	inactive: -0.024	inactive: -0.015	inactive: -0.028	inactive: -0.055
ESYT2 isoform 2 (UniProt A0FGR8)	inactive: -0.015	inactive: -0.022	inactive: 0.012	inactive: 0.006	inactive: 0.034	inactive: 0.006	inactive: 0.059	inactive: 0.016	inactive: 0.018	inactive: 0.092
ERAP1 isoform 2 (UniProt Q9NZ08)	inactive: -0.091	inactive: 0.056	inactive: 0.029	inactive: 0.039	inactive: -0.109	inactive: -0.015	inactive: -0.017	inactive: -0.087	inactive: 0.072	inactive: -0.019
EXOSC8 (UniProt Q96B26)	inactive: -0.001	inactive: 0.038	inactive: 0.004	inactive: 0.024	inactive: -0.043	inactive: -0.026	inactive: -0.032	inactive: 0.028	inactive: -0.001	inactive: -0.025
EPS15L1 isoform 2 (UniProt Q9UBC2)	inactive: 0.029	inactive: -0.068	inactive: -0.024	inactive: -0.015	inactive: -0.021	inactive: 0.023	inactive: -0.048	inactive: -0.039	inactive: 0.042	inactive: 0.01
FAM177A1 isoform 2 (UniProt Q8N128)	inactive: -0.072	inactive: -0.145	inactive: -0.041	inactive: -0.02	inactive: 0.013	active: -0.291	inactive: 0.031	inactive: -0.029	inactive: -0.018	inactive: 0
FAM118A (UniProt Q9NWS6)	inactive: 0.213	inactive: -0.15	inactive: 0.032	inactive: -0.323	inactive: 0.383	inactive: 0.023	inactive: 0.022	inactive: -0.044	inactive: 0	inactive: 0.207
ERGIC3 isoform 3 (UniProt Q9Y282)	inactive: -0.004	inactive: -0.075	inactive: -0.03	inactive: 0.003	inactive: -0.033	inactive: -0.044	inactive: 0.047	inactive: 0.005	inactive: 0.074	inactive: -0.036
EXTL3 (UniProt O43909)	inactive: -0.056	inactive: -0.094	inactive: 0.066	inactive: -0.001	inactive: 0.094	inactive: 0.06	inactive: 0.009	inactive: 0.219	inactive: 0.047	inactive: 0.067
FAM20B (UniProt O75063)	inactive: -0.082	inactive: 0.039	inactive: 0.055	inactive: -0.068	inactive: -0.018	inactive: 0.006	inactive: 0.008	inactive: 0.006	inactive: -0.075	inactive: -0.026
EXOSC2 (UniProt Q13868)	inactive: -0.018	inactive: -0.008	inactive: -0.022	inactive: -0.035	inactive: -0.087	inactive: 0.012	inactive: 0	inactive: 0.048	inactive: 0.011	inactive: 0.033
EXTL2 (UniProt Q9UBQ6)	inactive: 0.051	inactive: -0.023	inactive: -0.147	inactive: -0.121	inactive: -0.144	inactive: -0.094	inactive: 0.075	inactive: 0.123	inactive: 0.05	inactive: -0.111
EPCAM (UniProt P16422)	inactive: 0.008	inactive: 0.025	inactive: 0	inactive: -0.031	inactive: 0.015	inactive: 0.033	inactive: -0.1	inactive: -0.012	inactive: 0.015	inactive: 0.016
EPN2 (UniProt O95208)	inactive: -0.115	inactive: 0	inactive: -0.058	inactive: -0.028	inactive: 0.229	inactive: -0.035	inactive: 0.002	inactive: 0.047	inactive: 0.04	inactive: 0.041
ERLEC1 (UniProt Q96DZ1)	inactive: -0.059	inactive: -0.002	inactive: -0.009	inactive: 0.01	inactive: -0.01	inactive: 0.025	inactive: 0.015	inactive: 0.012	inactive: 0	inactive: 0
FADS1, A0A0A0MR51	active: -0.31	inactive: -0.112	inactive: -0.004	inactive: 0.055	inactive: -0.007	inactive: -0.111	inactive: 0.049	inactive: 0.009	inactive: 0.044	inactive: -0.092
EXOSC3 (UniProt Q9NQT5)	inactive: 0.012	inactive: 0.036	inactive: 0.028	inactive: -0.065	inactive: -0.102	inactive: 0.008	inactive: -0.025	inactive: -0.025	inactive: 0.036	inactive: -0.012
FAM160B1 (UniProt Q5W0V3)	inactive: 0.026	inactive: -0.145	inactive: 0.004	inactive: -0.053	inactive: -0.096	inactive: -0.092	inactive: 0.047	inactive: -0.027	inactive: 0.009	inactive: -0.009
EPRS (UniProt P07814)	inactive: -0.009	inactive: 0.423	inactive: 0.049	inactive: 0.189	inactive: -0.072	inactive: -0.013	inactive: -0.013	inactive: -0.203	inactive: 0.059	inactive: -0.164
FAAP100 (UniProt Q0VG06)	inactive: -0.008	inactive: -0.012	inactive: -0.025	inactive: 0.055	inactive: -0.044	inactive: -0.095	inactive: 0.036	inactive: 0.004	inactive: 0.011	inactive: -0.067
EVC2 (UniProt Q86UK5)	inactive: -0.073	inactive: -0.142	inactive: -0.039	inactive: 0.053	inactive: -0.066	inactive: -0.146	inactive: 0.09	inactive: 0.016	inactive: -0.224	inactive: -0.194
ERCC2 (UniProt P18074)	inactive: -0.024	inactive: 0.018	inactive: 0.068	inactive: 0.063	inactive: 0.001	inactive: -0.061	inactive: -0.03	inactive: -0.021	inactive: 0.049	inactive: 0.042
EXOSC1 (UniProt Q9Y3B2)	inactive: -0.05	inactive: 0.122	inactive: 0.053	inactive: -0.028	inactive: 0.017	inactive: -0.031	inactive: 0.027	inactive: -0.02	inactive: 0.016	inactive: -0.058
FAF1 (UniProt Q9UNN5)	inactive: -0.014	inactive: -0.05	inactive: 0.035	inactive: -0.008	inactive: -0.044	inactive: -0.029	inactive: 0.011	inactive: 0.01	inactive: -0.017	inactive: -0.016
ETFDH (UniProt Q16134)	inactive: 0.085	inactive: -0.146	inactive: 0.012	inactive: -0.034	inactive: 0.03	inactive: -0.022	inactive: 0.026	inactive: 0.026	inactive: -0.052	inactive: 0.032
EPB41L2 (UniProt O43491)	inactive: 0.022	inactive: 0.056	inactive: -0.01	inactive: -0.028	inactive: -0.014	inactive: 0.007	inactive: 0.054	inactive: -0.004	inactive: 0	inactive: 0.031
F5 (UniProt P12259)	inactive: -0.032	inactive: -0.05	inactive: -0.051	active: 0.613	inactive: -0.074	inactive: -0.089	inactive: 0.026	inactive: 0.059	inactive: 0.034	inactive: 0.074
